Measurements reported in PubChem BioAssay AID504793 (Drosophila RNAi Screening Center, 2011)

- Purpose: 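Genes required for cells to halt at G2/M after double-strand DNA breaks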 (primary screen)
- Cells: Drosophila S2R+ cells
- Knock-down reagent: long dsRNA against Drosophila genes, about 0.25 µg dsRNA per well
- Duration: 4 days of dsRNA, then 4 hours of drug before read-out
- Challenge: doxorubicin 0.5 µM for 4 hours to cause double-strand breaks, in cells also given a low, harmless dose of dsRNA against nbs to sensitise the assay
- Measurement: 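Mitotic index as the number of phospho-histone H3-positive cells in each well following doxorubicin, given as raw counts without normalisation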
- Scale: mitotic cells: higher = more cells in mitosis, weaker G2 arrest
- Hit rule: 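Genes are called active only when high mitotic counts were reproduced with independent dsRNAs and mitosis was checked for delay without damage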
- Meaning of the calls: active = confirmed in follow-up tests; inactive = not confirmed
The deposit covers about 23,000 reagents; below is a random part of those that have a named target and a result. Of all reagents, 62 (0.27%) were called active. 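Calls come from follow-up tests whose scores are not deposited, so confirmed genes may have low counts here; counts are not normalised per plate.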 The raw values are shown without normalisation. Entries without a mark were called inactive. Names joined by + are all predicted targets of the reagent. Reagent sequences are not shown.

How did the screen score ZC3H3 [DRSC10696]?
mitotic cells, replicate 1: 6

What did the screen give for ZC3H3 [DRSC28763]?
mitotic cells, replicate 1: 4

For Not10 [DRSC14129], what was measured?
mitotic cells, replicate 1: 5

With CG1835 [DRSC20560], how do the results read?
mitotic cells, replicate 1: 7

With dbo [DRSC11339], how do the results read?
mitotic cells, replicate 1: 8

For CG13998 [DRSC02330], what does the deposit list?
mitotic cells, replicate 1: 4

What is on record for Idh [DRSC10779]?
mitotic cells, replicate 1: 4

How did the screen score 7SLRNA:CR42652 + 7SLRNA:CR32864 [DRSC22968]?
mitotic cells, replicate 1: 12

For galectin [DRSC00305], what does the deposit list?
mitotic cells, replicate 1: 5

Entries above whose gene name begins with Z or z:
ZC3H3 [DRSC10696] → mitotic cells, replicate 1: 6
ZC3H3 [DRSC28763] → mitotic cells, replicate 1: 4

Further entries:
Which result is listed for CG12498 [DRSC18635]?
mitotic cells, replicate 1: 6

For ppk22 [DRSC22093], what does the deposit list?
mitotic cells, replicate 1: 11

Which result is listed for CG18081 [DRSC10294]?
mitotic cells, replicate 1: 4

With CG18081 [DRSC25758], how do the results read?
mitotic cells, replicate 1: 9

How did the screen score RpS28b [DRSC18258]?
mitotic cells, replicate 1: 7

With RpS28b [DRSC29909], what was measured?
mitotic cells, replicate 1: 8

With CG13894 [DRSC23205], what does the deposit list?
mitotic cells, replicate 1: 14

For CG13894 [DRSC29274], what was measured?
mitotic cells, replicate 1: 3

For p115 [DRSC18813], what does the deposit list?
mitotic cells, replicate 1: 11

What did the screen give for tio [DRSC03739]?
mitotic cells, replicate 1: 5

For CG31313 [DRSC13044], how do the results read?
mitotic cells, replicate 1: 12

How did the screen score hay [DRSC11354]?
mitotic cells, replicate 1: 8

What did the screen give for MFS12 [DRSC07268]?
mitotic cells, replicate 1: 7

For CG34462 [DRSC10768], what was measured?
mitotic cells, replicate 1: 8

What is on record for CG34462 [DRSC25352]?
mitotic cells, replicate 1: 9
